Substitutions are numbered along the chain they refer to. Construct, isoform or probe ends are uncertain for at least one entry. At least one verdict rests on a figure or table, not on a statement of the authors. Protein sequences can lack the tags named with them.
What was measured:
[1] = target: T1, PfMCMN F202A (Pyrococcus furiosus) (UniProt Q8U3I4); assay: EMSA; details: 5 mM Mg2+; EMSA: 20 mM HEPES pH 7.6, 200 mM NaCl, 5 mM MgCl2, 5 mM bME, 25 C, 30 min, 160 nM DNA; 4-20% TBE PAGE; recombinant protein; residues 1-256; protein details: His6-SUMO removed by Ulp1; label: 5'-fluorescein on strand 1
T1 sequence (looked up): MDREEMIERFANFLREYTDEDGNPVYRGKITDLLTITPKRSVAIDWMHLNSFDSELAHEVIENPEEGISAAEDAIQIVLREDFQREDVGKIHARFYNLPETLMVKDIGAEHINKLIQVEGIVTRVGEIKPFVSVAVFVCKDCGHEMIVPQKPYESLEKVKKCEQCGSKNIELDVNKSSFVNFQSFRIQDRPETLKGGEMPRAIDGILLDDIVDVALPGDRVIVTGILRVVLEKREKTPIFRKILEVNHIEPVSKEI

[2] = target: T2, PfMCMN K233A (Pyrococcus furiosus) (UniProt Q8U3I4); assay: EMSA; details: 5 mM Mg2+; EMSA: 20 mM HEPES pH 7.6, 200 mM NaCl, 5 mM MgCl2, 5 mM bME, 25 C, 30 min, 160 nM DNA; 4-20% TBE PAGE; recombinant protein; residues 1-256; protein details: His6-SUMO removed by Ulp1; label: 5'-fluorescein on strand 1
T2 sequence (looked up): T1 sequence (looked up) with A202F, K233A

ATGGCAGATCTCAATTGGATATCGGC (double strand) [26-mer dsDNA]
binding result [1]: binds | binding result [2]: binds
